{"source": "paper PMC9440282", "assay_in_all_cases": "EMSA", "key": {"[1]": {"system": "ASH2L (human)", "details": "apo, mostly aggregates not entering the gel; EMSA: protein dilutions 11.52-[…] mixed 1:1 with 80 nM DNA (40 nM final); protein buffer 25 mM HEPES pH 7.4, 150 mM NaCl, 0.5 mg/mL BSA, 5% glycerol; on ice 30 min; recombinant protein; residues 1-534; protein details: tag-free after cleavage (His-SUMO/ULP1 or GST/3C); label: 5'-FAM"}, "[2]": {"system": "ASH2L + DPY30", "details": "DPY30 increases affinity, soluble complex, sharp band; EMSA: protein dilutions 11.52-[…] mixed 1:1 with 80 nM DNA (40 nM final); protein buffer 25 mM HEPES pH 7.4, 150 mM NaCl, 0.5 mg/mL BSA, 5% glycerol; on ice 30 min; recombinant protein; label: 5'-FAM"}, "[3]": {"system": "ASH2L ΔLL del178-285,del400-440 (human)", "details": "apo; EMSA: protein dilutions 11.52-[…] mixed 1:1 with 80 nM DNA (40 nM final); protein buffer 25 mM HEPES pH 7.4, 150 mM NaCl, 0.5 mg/mL BSA, 5% glycerol; on ice 30 min; recombinant protein; residues 1-534; protein details: tag-free after His-SUMO/ULP1 cleavage; label: 5'-FAM"}, "[4]": {"system": "ASH2L ΔPHD-WH del1-177 (human)", "details": "apo; EMSA: protein dilutions 11.52-[…] mixed 1:1 with 80 nM DNA (40 nM final); protein buffer 25 mM HEPES pH 7.4, 150 mM NaCl, 0.5 mg/mL BSA, 5% glycerol; on ice 30 min; recombinant protein; residues 178-534; protein details: tag-free after His-SUMO/ULP1 cleavage; label: 5'-FAM"}, "[5]": {"target": "DPY30 (human) (UniProt Q9C005)", "details": "DPY30 alone; EMSA: protein dilutions 11.52-[…] mixed 1:1 with 80 nM DNA (40 nM final); protein buffer 25 mM HEPES pH 7.4, 150 mM NaCl, 0.5 mg/mL BSA, 5% glycerol; on ice 30 min; recombinant protein; residues 1-99; protein details: tag-free after cleavage (His-SUMO/ULP1 or GST/3C); label: 5'-FAM"}}, "note": "The exact form of at least one protein or probe is not confirmed. For some assays here: Negatives hold for the conditions tested. For some assays here: A weaker result is weaker than the reference pair of the same experiment."}
{"sequence": "TCTCTAGAGTCGACCTGCAGGCATG (double strand) [25 bp FAM-dsDNA]", "values": [{"measurement": "binding result", "setting": "[1]", "value": "binds"}, {"measurement": "binding result", "setting": "[2]", "value": "binds"}, {"measurement": "binding result", "setting": "[3]", "value": "no binding"}, {"measurement": "binding result", "setting": "[4]", "value": "binds more weakly"}, {"measurement": "binding result", "setting": "[5]", "value": "no binding"}]}
